Test: taste testing of spilanthol level and source in confectionery
Assay type: in vivo

SMILES: C/C=C/C=C\CC/C=C/C(=O)NCC(C)C [spilanthol, N-isobutyl-2E,6Z,8E-decatrienamide]
- taste at high spilanthol amounts (amounts above about 60 ppm in the confectionery composition): undesirable bitterness, even burning in some formulations
- taste profile and tingling compared to plant extracts (based on taste testing, vs some comparable plant extracts): cleaner profile and/or less tingling
